# Primary screen of a compound library

Chains of the proteins cited; added tags and fusions are not shown.
UniProt E9BF75, entry or part of it: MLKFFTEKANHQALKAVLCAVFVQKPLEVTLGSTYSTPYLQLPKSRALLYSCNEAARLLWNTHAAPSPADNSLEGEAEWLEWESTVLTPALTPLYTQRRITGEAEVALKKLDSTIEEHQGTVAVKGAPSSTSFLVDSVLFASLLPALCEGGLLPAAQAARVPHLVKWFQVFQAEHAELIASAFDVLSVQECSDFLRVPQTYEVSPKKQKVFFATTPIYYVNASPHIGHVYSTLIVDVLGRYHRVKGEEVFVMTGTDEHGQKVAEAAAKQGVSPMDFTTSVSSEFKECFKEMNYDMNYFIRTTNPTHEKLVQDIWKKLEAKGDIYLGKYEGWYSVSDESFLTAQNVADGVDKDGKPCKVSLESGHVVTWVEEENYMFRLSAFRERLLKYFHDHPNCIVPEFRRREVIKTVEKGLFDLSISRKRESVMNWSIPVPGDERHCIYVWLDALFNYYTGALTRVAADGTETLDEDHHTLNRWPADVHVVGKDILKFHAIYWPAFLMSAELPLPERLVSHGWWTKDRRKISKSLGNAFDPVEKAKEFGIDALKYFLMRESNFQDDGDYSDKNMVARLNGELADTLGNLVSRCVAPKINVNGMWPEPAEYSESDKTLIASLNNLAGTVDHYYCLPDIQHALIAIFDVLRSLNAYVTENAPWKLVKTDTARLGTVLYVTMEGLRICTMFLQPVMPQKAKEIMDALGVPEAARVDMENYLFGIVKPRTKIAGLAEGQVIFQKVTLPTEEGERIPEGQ

From ChEMBL document CHEMBL3988442, “University of Dundee, Small-Polar-MMV Screening Library” (2021).

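Primary screen of methionyl-tRNA synthetase; the read-out is not stated. Target: Methionyl-tRNA synthetase (putative), Leishmania donovani (UniProt E9BF75). The test concentration is not given. The values are filed as inhibition. Of about 68,000 compounds tested this way, about 24 (0.035%) reached 50% or more in at least one test.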

All values are in %. How 0% and 100% were set is not recorded. Most values in the screen are low, and negative values occur. This is an unselected part of the compounds tested.

compound	Inhibition
COc1ccccc1CNc1ccc2nncn2n1	16.09%
CC(C)C(C)NC(=O)Nc1ccccc1CN1CCOCC1 (centres undefined)	13.75%
Cc1cccc(CN2C(=O)CC[C@H]3[C@@H]2CCN3CC(=O)N(C)C)n1	18.73%
CCn1ncc2c1C(COCC1CC1)CN(C(=O)c1cccs1)C2 (centres undefined)	11.5%
COc1c(C)cnc(CSc2nnc(N3CCCC3)s2)c1C	7.427%
CN1CCO[C@@H]2CN(S(=O)(=O)c3ccccc3F)CC[C@@H]2C1	14.98%
COc1ccc(NC(=O)CCc2c(C)nc3cc(O)nn3c2C)cn1	20.65%
CCOCC(=O)N1CCC(c2nc(-c3cccnn3)no2)CC1	20.07%
CCS(=O)(=O)N1CCC(OCCCc2ccccc2)C1 (centres undefined)	9.948%
CN(C)CC1CSCCCN1C(=O)c1ccc(-c2ccccc2)cc1 (centres undefined)	12.58%
c1cc(-c2c[nH]c([C@@H]3COCCN3CC3CC3)n2)ccn1	11.28%
COc1ccccc1OCc1cc(C(=O)N2C[C@@H](C)O[C@@H](C)C2)n[nH]1	11.61%
Cc1nn(C)c2nc(NCCOCCO)sc12	9.317%
CC1=C(c2ccc(C)cc2)S(=O)(=O)N=C1N1CCc2ccccc21	7.324%
CC(Nc1ccc(N2C(=O)CCCC2=O)cc1)c1ccc(C#N)cc1 (centres undefined)	9.749%
O=C(c1ccoc1)N1CC[C@@H](N2CCOCC2)[C@@H]1Cc1ccccc1	6.536%
COc1cnc(N2C[C@@H](CN3CCOCC3)[C@@H](CO)C2)nc1	0.4963%
Cc1nc2ccccc2c(=O)n1CCC(=O)N1CCCCCC1	16.94%
CCNC(=O)c1ccnc(CC2COc3c(cccc3OC)C2)c1 (centres undefined)	11.15%
CCN(Cc1ccc(F)cc1Cl)C1CCS(=O)(=O)C1 (centres undefined)	13.41%
CCN1CCC(CC(=O)NC[C@H]2CCc3ccccc3O2)CC1	10.56%
Cc1nc(-c2ccoc2)n(CC(=O)N(C)CC(C)C)c1C	6.944%
COc1cc2c(cc1C(=O)N1CC(c3ccncc3)C1)CCC2	10.31%
CC(=O)c1ccc(S(=O)(=O)NCC2CCN(c3cnccn3)CC2)cc1	-1.987%
O=C(NCC(=O)N1CCCCC1)c1ccc(Cl)cc1I	5.435%
CC(C)Oc1ncc(C(=O)N2CCC(CC(N)=O)CC2)cc1Cl	15.85%
O=C([C@H]1C[C@H]2OCC[C@H]2N(Cc2ccncc2)C1)N1CCCCO1	17.15%
CN(Cc1noc2c1CCCC2)C(=O)Nc1cccc(S(N)(=O)=O)c1	2.208%
CCC[C@@H]1CN(Cc2ccc(C(F)(F)F)nc2)C[C@H]1NS(C)(=O)=O	5.167%
CN(Cc1cccc(-n2cccn2)c1)C(=O)c1ccnc(N)c1	11.25%
Cc1ncccc1NC(=O)c1nc2c(n1C)CCN(C(=O)C1CC1)C2	9.384%
CCOc1ccccc1OC1CCN(C(=O)c2cnsn2)CC1	22.35%
CC(C)NC(=O)Nc1ccc(CNCc2ccc(OC(F)F)cc2)cc1	24.59%
CCOCC(=O)N1CC[C@@H]2O[C@@H](C)C[C@H]2C1	12.94%
Cc1cc(NCc2cccc(C#N)c2)ccc1C(=O)N(C)C	17.16%
CCN(CCn1cccn1)Cc1nc(-c2ccc(C)o2)oc1C	8.614%
CCN(CC)C(=O)C1(NCc2nc(C)c(C)o2)CCCCC1	7.945%
CCCC(=O)NC(C)(C)Cc1ccccc1OC	17.03%
COc1ccc(CN2CCC3(CC2)CCN(CCN(C)C)C3=O)cc1	12.32%
CC(=O)NCc1nnc2n1CCN(Cc1cccs1)C2	7.971%
CC(=O)N1CCCC2(CCN(Cc3ccc(Cl)c(C(F)(F)F)c3)C2)C1 (centres undefined)	16.38%
O=C(c1cccc2cccnc12)N1CCCN(c2cccnn2)CC1	14.58%
Cc1nn(C)c(C)c1C1CCCN1Cc1nc(-c2ccccn2)no1 (centres undefined)	24.44%
COc1ccc(Cl)cc1CCNC(=O)NCc1ncnn1C	11.49%
CCc1ccc(C(=O)N2CCC(c3nncn3CC)CC2)s1	7.821%
COCCN(Cc1cnn(C)c1)C(=O)C1CCN(C2CCCCC2)CC1	13.71%

4 of the entries, repeated:

| compound | Inhibition |
|---|---|
| `CC1=C(c2ccc(C)cc2)S(=O)(=O)N=C1N1CCc2ccccc21` | 7.324% |
| `COc1ccccc1OCc1cc(C(=O)N2C[C@@H](C)O[C@@H](C)C2)n[nH]1` | 11.61% |
| `O=C([C@H]1C[C@H]2OCC[C@H]2N(Cc2ccncc2)C1)N1CCCCO1` | 17.15% |
| `COc1cnc(N2C[C@@H](CN3CCOCC3)[C@@H](CO)C2)nc1` | 0.4963% |